Reference: PMC12481014

Amino acid sequences for entries named in this document (tags omitted). Residues count along the entry.
UniProt P57682, residues 1-262: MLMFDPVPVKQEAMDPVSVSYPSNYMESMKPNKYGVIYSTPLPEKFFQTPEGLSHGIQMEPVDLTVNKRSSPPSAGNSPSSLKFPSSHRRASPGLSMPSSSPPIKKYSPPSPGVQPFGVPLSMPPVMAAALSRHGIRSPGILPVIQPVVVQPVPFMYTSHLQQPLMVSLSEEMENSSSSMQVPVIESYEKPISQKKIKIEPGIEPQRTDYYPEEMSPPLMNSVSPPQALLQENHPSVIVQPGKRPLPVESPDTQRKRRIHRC
UniProt Q9P2R6: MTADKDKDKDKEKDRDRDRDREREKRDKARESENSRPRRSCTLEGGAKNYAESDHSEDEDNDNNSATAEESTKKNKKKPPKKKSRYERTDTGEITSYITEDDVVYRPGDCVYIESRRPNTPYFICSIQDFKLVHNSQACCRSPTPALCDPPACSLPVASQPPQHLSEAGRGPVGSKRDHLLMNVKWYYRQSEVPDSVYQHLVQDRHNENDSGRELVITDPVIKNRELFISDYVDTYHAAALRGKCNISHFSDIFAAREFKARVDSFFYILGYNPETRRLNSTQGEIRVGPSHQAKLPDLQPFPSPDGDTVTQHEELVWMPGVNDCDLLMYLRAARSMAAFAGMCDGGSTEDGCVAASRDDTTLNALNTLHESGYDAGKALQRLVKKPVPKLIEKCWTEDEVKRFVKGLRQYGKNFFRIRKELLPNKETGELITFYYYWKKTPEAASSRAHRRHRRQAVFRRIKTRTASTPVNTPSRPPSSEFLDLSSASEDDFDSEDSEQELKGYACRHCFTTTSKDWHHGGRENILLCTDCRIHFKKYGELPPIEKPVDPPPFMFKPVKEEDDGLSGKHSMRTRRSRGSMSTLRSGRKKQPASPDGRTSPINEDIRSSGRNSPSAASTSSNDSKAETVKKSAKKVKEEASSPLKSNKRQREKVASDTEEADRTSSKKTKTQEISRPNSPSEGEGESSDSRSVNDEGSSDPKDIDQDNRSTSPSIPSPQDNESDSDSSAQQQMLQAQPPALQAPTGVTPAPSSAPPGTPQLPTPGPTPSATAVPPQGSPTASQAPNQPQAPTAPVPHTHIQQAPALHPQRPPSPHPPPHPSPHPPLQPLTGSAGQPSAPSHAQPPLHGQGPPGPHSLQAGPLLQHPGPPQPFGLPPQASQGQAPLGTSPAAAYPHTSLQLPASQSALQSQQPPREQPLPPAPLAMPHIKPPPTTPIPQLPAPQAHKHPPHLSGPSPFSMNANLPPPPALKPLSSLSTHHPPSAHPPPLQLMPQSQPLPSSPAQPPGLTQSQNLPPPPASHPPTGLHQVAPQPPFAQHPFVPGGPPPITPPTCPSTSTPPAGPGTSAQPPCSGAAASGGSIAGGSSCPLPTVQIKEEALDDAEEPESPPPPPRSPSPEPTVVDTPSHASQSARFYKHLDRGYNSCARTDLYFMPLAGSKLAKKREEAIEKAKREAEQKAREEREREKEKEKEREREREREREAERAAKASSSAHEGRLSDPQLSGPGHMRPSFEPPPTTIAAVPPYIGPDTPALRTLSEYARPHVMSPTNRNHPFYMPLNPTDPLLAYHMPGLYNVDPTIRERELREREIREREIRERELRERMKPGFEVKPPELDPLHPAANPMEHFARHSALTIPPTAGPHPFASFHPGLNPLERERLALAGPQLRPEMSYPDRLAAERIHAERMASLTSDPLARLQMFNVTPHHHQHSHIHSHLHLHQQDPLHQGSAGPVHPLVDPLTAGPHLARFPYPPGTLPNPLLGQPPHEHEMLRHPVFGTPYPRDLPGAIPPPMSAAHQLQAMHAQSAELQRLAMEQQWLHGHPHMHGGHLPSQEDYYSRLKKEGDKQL
UniProt Q92769: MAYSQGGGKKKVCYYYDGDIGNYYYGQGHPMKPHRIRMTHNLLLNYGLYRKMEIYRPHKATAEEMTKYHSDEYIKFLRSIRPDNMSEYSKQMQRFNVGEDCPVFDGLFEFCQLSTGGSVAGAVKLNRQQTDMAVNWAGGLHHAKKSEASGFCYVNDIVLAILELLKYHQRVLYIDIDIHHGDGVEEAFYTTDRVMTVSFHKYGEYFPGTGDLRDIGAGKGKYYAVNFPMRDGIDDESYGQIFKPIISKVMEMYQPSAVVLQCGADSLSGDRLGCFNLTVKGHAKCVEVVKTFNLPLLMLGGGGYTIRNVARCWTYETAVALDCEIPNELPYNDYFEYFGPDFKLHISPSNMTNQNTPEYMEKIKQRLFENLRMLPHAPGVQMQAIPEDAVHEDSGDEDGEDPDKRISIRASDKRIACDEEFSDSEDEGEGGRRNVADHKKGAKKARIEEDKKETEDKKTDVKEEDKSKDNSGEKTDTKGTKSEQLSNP

Target: V5-epitope-tagged human KLF3 functional domain fragment, KLF3-FD-V5 (1–262) (human) (UniProt P57682)
Test: affinity purification with mass spectrometry; anti-V5 antibody and protein G Dynabeads on nuclear lysate (RIPA: 50 mM Tris pH 7.5, 150 mM NaCl, 1% NP-40) of HEK293 cells stably expressing KLF3-FD-V5; washes with 75 mM NaCl RIPA; duplicate experiments; proteins found in empty vector cells discarded

binding | Substance
binds | RERE (from UniProt Q9P2R6 1-1566)
binds | HDAC2 (from UniProt Q92769 1-488)
binds | CtBP2 (from UniProt P56545 1-445)

No constants are given. Whether binding was seen depends on the method and setting. Binding seen in cells or lysates may run through a third protein. These calls come from enrichment with a bait or labelling near it, and not all partners need be listed.
